Assay results published in patent US8809498B2 (priority 2008, dated 2014).

Assay: general procedure: Fmoc solid-phase peptide synthesis; 2-Cl-tritylchloride resin
Conditions: whole synthesis; for isolated yield: total yield after purification, scale of the general procedure 0.1 mmol
[1] = TFA salt (Lys, Orn, Dab, Arg peptides)

Substance | isolated mass (TFA salt) | isolated yield (TFA salt) | isolated mass [1] | isolated yield [1]
(N-Iva-Phe)-Nle-Sta-Lys-Sta | 32 mg | 34.8% | – | –
(N-Iva-Val)-DfpGly-Sta-Ala-Sta | – | – | 28.1 mg | ˜39.0%
(N-Iva-Val)-TfeGly-Sta-Ala-Sta | – | – | 31.0 mg | 42.7%
